Assay results taken from patent US9687483B2, “Treatment of cerebral cavernous malformations and cerebral aneurysms with Rho kinase inhibitors” (priority 2015, dated 2017).
Like-named read-outs stand apart in the source and are kept apart here. Marks after values point to notes of the source that are not given here.

Test system: human plasma proteins
Details: for Recovery: mass balance after 24 hr of dialysis; for Plasma Concentration: measured following 24 h of dialysis

Row | SMILES | Recovery | Recovery (listed as BA-1049 (Racemate)) [%] | Plasma Concentration [ng/mL] | Plasma Concentration (radiolabeled standards)
1 | CC(N)C1CCN(S(=O)(=O)c2cccc3cnccc23)CC1.Cl.Cl (racemic) [BA-1049] | essentially complete | 98.1 | 5575 | –
2 | CC(C)NC[C@H](O)COc1cccc2ccccc12 [[^3H]-Propranolol, L-(−)-[4-^3H]propranolol] | 73.9% | – | – | 72.8^b pM
